Earlier results as cited in publication PMC6853154 (Clinical and Translational Science, 2019).

Tested on: CYP1A2
Conditions: coadministration of potent CYP1A2 inhibitor; cited from earlier work

SMILES: O=C(O)c1cn(C2CC2)c2cc(N3CCNCC3)c(F)cc2c1=O [ciprofloxacin]
- Increase of plasma exposure of tizanidine: up to 30 fold
